In patent US8969296B2, “TGFP-CAP peptide and its uses” (Caregen Co., Ltd, priority 2007, dated 2015):
Entries after “also recorded” stand apart in the source; their conditions may differ. At least one peptide structure holds a part that was inferred or is arguable (an end, a ring closure or a residue). Where a SMILES comes first, the peptide text is derived from it.

Experiments:
[1] = system: B16F10 melanoma cells; assay: Growth of transplanted melanoma cells in mice; type: in vivo, Balb/C mice
[2] = system: tyrosinase; assay: Tyrosinase activity in extracts of treated B16F10 cells (L-DOPA, absorbance 405 nm); type: cell-based; conditions: α-MSH 200 ng/ml, TGFβ-1 10 ng/ml or peptide 10 ng/ml-30 μg/ml, 4 days
Experimental: The tridecapeptide synthesized in Example 1 was analyzed to decrease levels of melanin pigment. B16F10 cells (Korean Cell Line Bank) were plated in a density of 1×10^5 cells/well and cultured in DMEM (Sigma) for 3 days at 37° C. under 5% CO2 conditions. After cell adhesion was observed, medium was changed with a fresh medium containing 2% serum. Cells were incubated with tested materials in determined concentrations for 4 days at 37° C. under 5% CO2 conditions. The tested materials were prepared in such a manner that components indicated in Table 6 were dissolved in medium and diluted with a mixed solvent of propylene glycol:ethanol:distilled water (5:3:2).
Afterwards, cells were harvested and treated with a lysis buffer containing sodiumdodecylsulfate (Sigma) and Triton X-100 (Sigma) to extract intracellular proteins. The extracted proteins were quantitated by the BCA method. For each experiment group, 90 μl of protein solution and 10 μl of L-DOPA (Sigma) were added and reacted for 30 min. The resultants were analyzed to measure their absorbance values at 405 nm for evaluating tyrosinase activities.

[3] = system: TRP-1 (tyrosinase related protein-1) and TRP-2; assay: Levels of TRP-1 and TRP-2 in melanoma cells (Western blotting); type: cell-based; conditions: 10 μM PD98059; with 10 ng/ml TGF-β1 or 30 μg/ml tridecapeptide
[4] = system: Mice melanocytes; assay: Inhibition of melanin generation induced by α-MSH (Dooley method); type: cell-based; conditions: α-MSH 200 ng/ml; peptide 10 ng/ml-30 μg/ml; 3 days; absorbance 400 nm
Experimental: The tridecapeptide synthesized in Example 1 was analyzed to decrease levels of melanin pigment. Mice melanocytes cultured were incubated with α-MSH (melanocyte stimulating hormone/Sigma) and then with the tridecapeptide in the determined concentrations to measure inhibition effects on melanin generation. Mice melanocytes were originated from C57BL/6 mice and cultured in DMEM (Dulbecco's modified Eagle's media) containing 10% fetal bovine serum at 37° C. under 5% CO2 conditions. Cells were cultured in a density of 1×10^5 cells/well and their adhesion to culture plates was observed. Then, cells were incubated with materials to be tested for 3 days. The tested materials were prepared in such a manner that components indicated in Table 5 were dissolved in medium and diluted with a mixed solvent of propylene glycol:ethanol:distilled water (5:3:2). Following removal of medium, cells were washed with PBS and treated with 1 N sodium hydroxide. The resultants were analyzed to measure their absorbance values at 400 nm.

[5] = system: B16F10 cells; assay: Melanosome formation under ERK inhibition by PD98059 (microscopy); type: cell-based; conditions: 10 μM PD98059; with 1 ng/ml transforming growth factor or 30 μg/ml tridecapeptide; 4 days
Experimental: To reveal skin whitening effects of the tridecapeptide synthesized in Example 1 and transforming growth factor, the activation of ERK was inhibited with PD98059 (Sigma) and then its inhibitory influence was evaluated after peptide treatment. B16F10 cells were seeded in 6-well culture dishes in a density of 1×10^5 cells/well and cultured in DMEM for 3 days at 37° C. under 5% CO2 conditions. After cell adhesion was observed, medium was changed with a fresh medium containing 2% serum. The negative control was not subject to any treatment. Cells plated in other two culture dishes were incubated with either 1 ng/ml transforming growth factor or 30 μg/ml tridecapeptide. In addition, cells cultured in other three dishes as a positive control were incubated with 10 μM PD98059 to inhibit ERK phosphorylation. Among them, cells contained in two dishes were incubated for 4 days with either 1 ng/ml transforming growth factor or 30 μg/ml tridecapeptide after 1-hr PD98059 treatment and their morphology was observed under microscopes.

[6] = system: ERK 1/2; assay: Western blotting of Phospho ERK 1/2 in melanoma cells; type: cell-based; conditions: 10 μM PD98059; with 10 ng/ml TGF-β1 or 30 μg/ml tridecapeptide
Experimental: Furthermore, to clearly verify the influence of TGF-β1 and tridecapeptide on signaling events, melanoma cells were cultured as described above and then incubated simultaneously with 10 μM PD98059 and 30 μg/ml tridecapeptide. Proteins from cell extracts were prepared and developed on SDS-PAGE, followed by electro-transferring to PVDF (polyvinylidene difluoride) membrane (GE Health Care). Afterwards, the PVDF membrane was incubated with Phospho ERK 1/2 antibodies (1/3000 diluted, Cell Signaling, USA) for 4 hr at room temperature. The PVDF membrane was washed with a washing buffer and incubated with HRP-conjugated anti-mouse IgG antibodies (1/5000 diluted, SantaCruz, USA). Then, it was washed twice with a washing buffer and incubated with ECL (enhanced chemilumineseance) solution (GE Health Care) (FIG. 6). In FIG. 6, among PD98059 treatment groups, the symbol “Con” is a group incubated with only 10 μM PD98059 and “TGFb1” is a group incubated with both 10 μM PD98059 and 10 ng/ml TGF-β1.

[7] = system: NIH-3T3 cells; assay: Stability analysis: remaining activity of solutions stored at 37° C., by MTT assay; type: physicochemical; conditions: 50 mM Tris-HCl (pH 8.0), days 0-100, tridecapeptide 10 μg/ml, TGF-β1 1 μg/ml
Experimental: To evaluate stability of the purified tridecapeptide, NH2-Ile-Trp-Ser-Leu-Asp-Thr-Gln-Tyr-Gly-Gly-Arg-Gly-Asp-OH, it was dissolved in 50 mM Tris-HCl (pH 8.0) to a concentration of 10 μg/ml. A recombinant TGF-β1 (Sigma) produced by E. coli was prepared as a control in the same buffer to a concentration of 1 μg/ml. The prepared solutions were introduced into glass vials and kept to stand at 37° C. Afterwards, the solutions were taken on days 0, 1, 10, 25, 50, 75 and 100 and subjected to a MTT assay (Scudiero, D. A., et al. Cancer Res. 48:4827-4833 (1988)) using NIH-3T3 cells (Korean Cell Line Bank) for determining their remaining activity (FIG. 2). The results were given as relative values to the activity (100%) of sample taken on day 0.

[8] = about 100 μg twice a day, tumoric sites analyzed after sacrifice

With `CC[C@H](C)[C@H](N)C(=O)N[C@@H](Cc1c[nH]c2ccccc12)C(=O)N[C@@H](CO)C(=O)N[C@@H](CC(C)C)C(=O)N[C@@H](CC(=O)O)C(=O)N[C@H](C(=O)N[C@@H](CCC(N)=O)C(=O)N[C@@H](Cc1ccc(O)cc1)C(=O)NCC(=O)NCC(=O)N[C@@H](CCCNC(=N)N)C(=O)NCC(=O)N[C@@H](CC(=O)O)C(=O)O)[C@@H](C)O` [tridecapeptide, NH2-Ile-Trp-Ser-Leu-Asp-Thr-Gln-Tyr-Gly-Gly-Arg-Gly-Asp-OH] (H-IWSLDTQYGGRGD-OH) the “tumor size at administered site” value ([1]; about 100 μg twice a day at the tumor site, 1 week) was “Tumor regression was clearly observed”, the “production of melanoma cells in tissues (hematoxylin and eosin)” value ([1]; about 100 μg twice a day, slices of tumor sites) was “significantly decreased” and the angiogenesis [1, 8] was “inhibited”. For the same compound, the tumor metastasis [1, 8] was “inhibited”, the tyrosinase activity [2] was “relatively reduced tyrosinase activity in a dose dependent manner; also recorded: decrease in tyrosinase activity similar to that of no α-MSH treatment” and the “levels of TRP-1 and TRP-2” value [3] was “decreased”. For the same compound, the “melanin generation / melanin content” value [4] was “decreased melanin content in a concentration dependent manner; also recorded: decrease in melanin level similar to that of no α-MSH treatment”, the melanosome number [5] was “significantly reduced melanosome number” and the “levels of Phospho ERK 1 and ERK 2” value [6] was “elevated levels of Phoshpo ERK 1 and ERK 2”. The “remaining activity over time (relative to day 0 = 100%)” value [7] was “not to be decreased over time”.
